In paper PMC6258673:
These are yes or no findings as the source states them, for the method shown. Binding seen in cells or lysates may run through a third protein. Where a sequence is shown, tags or fusion partners need not be part of it.

Target: T1, GST-TRIM24 (1–400aa) (UniProt O15164)
T1 sequence: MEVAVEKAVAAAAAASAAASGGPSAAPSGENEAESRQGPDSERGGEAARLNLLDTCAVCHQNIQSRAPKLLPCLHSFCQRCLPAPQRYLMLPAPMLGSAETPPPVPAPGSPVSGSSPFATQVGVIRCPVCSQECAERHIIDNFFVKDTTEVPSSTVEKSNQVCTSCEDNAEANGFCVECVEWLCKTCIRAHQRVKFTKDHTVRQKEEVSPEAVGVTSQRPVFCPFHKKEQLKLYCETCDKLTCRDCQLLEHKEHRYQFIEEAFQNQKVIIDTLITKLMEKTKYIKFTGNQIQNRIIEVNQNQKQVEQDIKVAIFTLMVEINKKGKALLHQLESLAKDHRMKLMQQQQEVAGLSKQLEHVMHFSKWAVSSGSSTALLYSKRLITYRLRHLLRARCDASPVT
Assay: pull-down; bacterial recombinant GST-TRIM24 (1–400aa) on GSH beads, incubated 2–3 h with LNCaP lysates expressing SFB-tagged TRIM28 full length or deletion mutants; washed with NETN; blot with anti-Flag; only the target purified

binding: no binding
Substance: TRIM28-ΔN-SFB (domain or fragment)
